Data published in PubChem BioAssay AID504848 (National Center for Advancing Translational Sciences (NCATS), 2011).
Hit rate of the full screen: of about 2,300 compounds, about 1,400 (61%) were called active. The set was probably picked from earlier hits. This list was built around the results that the source calls inconclusive (neither active nor inactive); the mix of calls is not that of the screen. The call rests on the fitted dose curve; in most records, active means well fitted inhibition curve with a large enough effect; inconclusive means small, poorly fitted or top-dose-only effect, or effect the other way; inactive means no such curve, though single readings can be large or run the other way. Potencies beside an inconclusive call are fits to weak or partial responses and may not hold up.

test: Confirmation screen for delayed death inhibitors of the malarial parasite plastid, 96 hour incubation; further: nearly all actives have a fitted effect of over 60% in size; conditions: P. falciparum luciferase growth in erythrocytes; series mostly up to 28.7 µM; activity change, negative = inhibition: at the top concentration
Method in brief: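 Two-generation (96 h, 37 C) exposure of P. falciparum carrying an integrated firefly luciferase reporter in erythrocytes, 0.1% parasitemia and 2% hematocrit final, Albumax-supplemented RPMI. Luminescence decrease measures growth inhibition.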
On the % scale 0 is the no-effect control and ±100 the full control effect; potency means the concentration at half of the fitted maximal effect.

Structure (SMILES)	Potency	activity change, negative = inhibition
Cn1cnc([N+](=O)[O-])c1Sc1ccc(Br)cc1	inconclusive: 14.1 µM [inhibitor, partial curve]	
CC1CCN(S(=O)(=O)c2ccc3c(c2)N(CC(=O)NCCCOC(C)C)C(=O)CO3)CC1	inconclusive: 2.82 µM [inhibitor, full curve]	
Cc1cccc(N(CC(=O)NCc2ccco2)C(=O)CCC(=O)Nc2ccccn2)c1C	inconclusive: 10 µM [inhibitor, partial curve, poor fit]	
Cc1ccc(/C=C/C(=O)c2ccccc(=O)c2O)cc1C	inconclusive: 1 µM [inhibitor, full curve, poor fit]	
CN(CCC#N)C(=O)COC(=O)c1ccc2[nH]c3c(c2c1)CCCC3		inactive: -21.3%
C/C(CC(=O)Nc1ccc(N(C)C)cc1)=N\NC(=O)c1ccc(F)cc1	inconclusive: 11.2 µM [inhibitor, partial curve, poor fit]	
Cc1ccc(-c2nn3c(C)nnc3c3ccccc23)cc1S(=O)(=O)NCc1ccco1	inconclusive: 7.08 µM [inhibitor, partial curve, poor fit]	
CCN1CCCC1CNC(=O)CS(=O)(=O)Cc1nc(-c2ccccc2C)oc1C (stereo not given)	inconclusive: 11.2 µM [inhibitor, partial curve, poor fit]	
O=C(N/N=C/c1cccs1)/C(=C/c1ccccc1)NC(=O)c1ccccc1	inconclusive: 10 µM [inhibitor, partial curve, poor fit]	
O=C(CNCc1ccccc1Cl)Nc1ccc(C(=O)N2CCCCC2)cc1	inconclusive: 12.6 µM [inhibitor, single point]	
COc1cc(/C=N/Nc2ccc3ccccc3c2)ccc1OC(=O)c1ccco1	inconclusive: 1.12 µM [inhibitor, full curve, poor fit]	
O=C(Cn1ncc2c3ccccc3n(Cc3cccc(Cl)c3)c2c1=O)NCc1ccccn1	inconclusive: 2.82 µM [inhibitor, full curve, poor fit]	
COc1ccc(/C=N/NC(=O)c2cc(-c3ccccc3OC(C)C)nc3ccccc23)cc1CN1CCOCC1	inconclusive: 17.8 µM [inhibitor, partial curve, poor fit]	
Cc1ccc(C(=O)OCc2nnc(-c3ccc(Br)cc3)o2)cc1		inactive: -5.53%
O=C(NC1CCCC1)C1CC(=O)N(CCc2ccccc2)C1 (stereo not given)		inactive: -58%
COc1cccc(NC(=O)c2oc3ccccc3c2NC(=O)C2CC2)c1	inconclusive: 12.6 µM [inhibitor, partial curve, poor fit]	
CN(CCc1ccccn1)C(=O)c1ccc(OC2CCN(CCc3ccccc3)CC2)cc1	inconclusive: 14.1 µM [inhibitor, partial curve, poor fit]	
Cc1sc2nc[nH]c(=O)c2c1-c1ccc(Cl)cc1	inconclusive: 15.8 µM [inhibitor, single point]	
CC(=O)c1ccc(NC(=S)Nc2ccc3cn[nH]c3c2)cc1		inactive: 0.644%
O=C(O)c1ccc(/C=N/NC(=O)c2ccc3c(c2)OCCO3)cc1		inactive: 24%
CCOc1ccc(-n2c(C)c(C(=O)O)c3cc(OC)ccc32)cc1	inconclusive: 15.8 µM [inhibitor, single point]	
Cc1cccc(C)c1OCCn1nc(C(=O)O)c2ccccc2c1=O		inactive: -21.3%
COc1ccccc1N(Cc1ccccc1)S(=O)(=O)c1cccc(C(=O)Nc2ccccn2)c1	active: 7.08 µM	
COc1ccc(C(=O)NCC(=O)N/N=C(C)\C=C\c2ccccc2)cc1OC	inconclusive: 10 µM [inhibitor, partial curve]	

Structure (SMILES)	Potency	activity change, negative = inhibition
COc1ccc(S(=O)(=O)N/N=C(/C)c2ccco2)cc1		inactive: -15.7%
O=C(CN1C(=O)/C(=C/c2ccco2)SC1=S)Nc1ccc(O)c(C(=O)O)c1	inconclusive: 12.6 µM [inhibitor, partial curve]	
O=C(Nc1ccccc1F)c1ccc(CN2CCN(c3ccccc3)CC2)cc1	inconclusive: 10 µM [inhibitor, partial curve, poor fit]	
Cc1cc(OCCN2CCN(S(=O)(=O)c3ccccc3F)CC2)ccc1C(C)C	inconclusive: 5.62 µM [inhibitor, partial curve, poor fit]	
CCOC(=O)C1=C(NC(=S)NC(=O)c2ccccc2)c2ccccc2CC1C(C)C (stereo not given)	inconclusive: 11.2 µM [inhibitor, partial curve, poor fit]	
C=CCNC(=O)c1onc(CSc2ccc(C)c(C)c2)c1C(=O)O	inconclusive: 12.6 µM [inhibitor, single point]	
Nc1ccc(C(=O)OCCCc2nc3cc4ccccc4cc3[nH]2)cc1	inconclusive: 10 µM [inhibitor, partial curve]	
CCC(=O)NCCc1cc2ccc(C)cc2[nH]c1=O		inactive: 1.76%
COc1cc2cc(CN(Cc3cccs3)C(=S)Nc3ccc(C)cc3)c(=O)[nH]c2cc1OC	active: 10 µM	
COc1cc(-c2ccc(Nc3ccccc3C(=O)O)c(OC)c2)ccc1Nc1ccccc1C(=O)O	active: 10 µM	
COc1ccc(C(=O)/C=C/c2ccc(OC)c(O)c2)c(F)c1	active: 11.2 µM	
C=CCNC(=O)CC(=O)N/N=C/c1ccccc1F	inconclusive: 2.82 µM [inhibitor, partial curve, poor fit]	
COC(=O)c1c(C)[nH]c(C(=O)C(C)OC(=O)c2c(C)noc2C)c1C (stereo not given)	inconclusive: 10 µM [inhibitor, partial curve]	
O=C1CSC(c2cccnc2)N1CCc1ccccn1 (stereo not given)		inactive: 3.07%
Cc1ccc2c(c1)cc(C(=O)NCc1ccccc1)n2C		inactive: 5.14%
CCN(CC(=O)NCc1ccc(Cl)cc1)C(=O)c1ccc(S(=O)(=O)NCc2ccco2)cc1	inconclusive: 8.91 µM [inhibitor, partial curve, poor fit]	
Cc1cccc2c1NC(=O)/C2=C\C(=O)c1cccs1		inactive: -9.95%
Fc1ccc(F)c(C2=NNC(=NCC3CCCO3)SC2)c1 (stereo not given)	inconclusive: 2.82 µM [activator, partial curve, poor fit]	
CCOc1cc(/C=C2/C(=O)ON=C2C)ccc1OCc1ccccc1		inactive: 4.29%
Cc1cccc(NC(=O)C(C)Sc2nc3ccccc3c(=O)n2CCCN2CCOCC2)c1 (stereo not given)	inconclusive: 3.98 µM [inhibitor, full curve, poor fit]	
Cc1cc(NC(=O)C(C)SCC(=O)N(Cc2ccccc2)c2ccccc2)no1 (stereo not given)	inconclusive: 15.8 µM [inhibitor, partial curve]	
C[C@@H](NC(=O)c1nc[nH]c1C(=O)N1CCN(C(=O)OC(C)(C)C)CC1)c1ccccc1	inconclusive: 12.6 µM [inhibitor, partial curve, poor fit]	
O=C(COC(=O)c1cc(-c2ccccn2)nc2ccccc12)Nc1ncc(C(F)(F)F)cc1Cl	inconclusive: 0.355 µM [inhibitor, full curve, poor fit]	
CCOc1ccc(CNC(=O)c2cc3oc4ccccc4c3n2C)cc1		inactive: 12.8%

Two neighbouring records out of the list so far, for reference:
Structure (SMILES)	Potency	activity change, negative = inhibition
Cc1cccc2c1NC(=O)/C2=C\C(=O)c1cccs1		inactive: -9.95%
Fc1ccc(F)c(C2=NNC(=NCC3CCCO3)SC2)c1 (stereo not given)	inconclusive: 2.82 µM [activator, partial curve, poor fit]	

Following part

Structure (SMILES)	Potency	activity change, negative = inhibition
COc1ccc(-c2cn(-c3ccccc3)c3[n+]2CCS3)cc1	inconclusive: 0.0631 µM [inhibitor, full curve, poor fit]	
COc1cc(/C=C/C(=O)c2ccc(Cl)s2)cc(OC)c1O	inconclusive: 14.1 µM [inhibitor, single point]	
CCc1ccc(-c2nc3ccc(Br)cc3c(C(=O)O)c2C)s1		inactive: -11.4%
CCc1c(C)sc(NC(=O)C2CC2c2ccccc2)c1C(N)=O (stereo not given)	inconclusive: 15.8 µM [inhibitor, partial curve, poor fit]	
COc1cc(/C=N/Nc2snc(SC)c2C#N)cc(OC)c1OC	inconclusive: 11.2 µM [inhibitor, partial curve]	
Cc1ccc(CNS(=O)(=O)c2ccc(C)s2)cc1		inactive: 25.7%
Cc1c(C(=O)NCc2ccc3c(c2)OCO3)oc2ccc(Br)cc12	inconclusive: 11.2 µM [inhibitor, single point]	
CC(=O)/C(C#N)=C1\NC(=O)C(Cc2ccc(F)cc2)S1 (stereo not given)	inconclusive: 8.91 µM [inhibitor, partial curve]	
COCCn1c(SCc2csc(-c3ccccc3)n2)nc2ccccc21	active: 12.6 µM	
COc1ccc(Nc2cccc(Cl)c2)c(C(=O)O)c1		inactive: -20.8%
COC(=O)c1cc(=O)n(Cc2cccs2)c(=Nc2ccccc2)s1		inactive: 3.33%
O=S(=O)(c1ccc(SCCO)nc1)N1CCOCC1		inactive: 5.43%
Cc1c(Cl)ccc2c(C(=O)O)cc(-c3ccccc3)nc12		inactive: 8.29%
CCOC(=O)c1c(-c2ccc(F)cc2)csc1NC(=O)c1c(-c2ccccc2)noc1C	active: 7.08 µM	
COc1cc(OC)c(OC)cc1CN1CCN(C(=O)c2cccc3ccccc23)CC1	active: 10 µM	
Cc1ccc(NC(=O)CSc2cccc3cccnc23)c(C)c1	inconclusive: 11.2 µM [inhibitor, partial curve, poor fit]	
COc1ccccc1N1CCN(S(=O)(=O)c2ccc(-n3cnnn3)cc2)CC1	inconclusive: 12.6 µM [inhibitor, partial curve]	
Cc1onc(C(=O)Nc2cccc(C(F)(F)F)c2)c1[N+](=O)[O-]	inconclusive: 14.1 µM [inhibitor, single point]	
COc1cccc2cc(C(=O)NCc3ccc(Cl)cc3)c(=N)oc12	inconclusive: 15.8 µM [inhibitor, single point]	
O=C(c1ccc(Cl)cc1)C(CN1CCCCC1)c1ccccc1 (stereo not given)	active: 12.6 µM	
COc1ccc2c(c1OC)C(=O)OC2Nc1nc(-c2ccccc2)cs1 (stereo not given)		inactive: -104%
Cc1cc(C)nc(S/C=C/C(=O)c2ccccc2F)n1	inconclusive: 8.91 µM [inhibitor, partial curve]	
